Assay results published in PubChem BioAssay AID924 (National Center for Advancing Translational Sciences (NCATS), 2007).
What follows is the remainder of the data, with few or none of the hits. Results filed as inconclusive are left out. The source made the active and inactive calls. The call rests on the fitted dose curve; in most records, active means well fitted cell-killing curve with a large enough effect; inconclusive means small, poorly fitted or top-dose-only effect; inactive means no such curve, though single readings can be large or run the other way.

Test: qHTS Screen for Compounds that Selectively Target Cancer Cells with p53 Mutations: Cytotoxicity of p53ts Cells at the Permissive Temperature;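 further: 0% = DMSO and -100% = full killing by reference compound; nearly all actives have a fitted effect of over 55% in size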
Settings: H1299-p53A138V at 32C, ATP luminescence viability, 24 h
Source text: NIH Chemical Genomics Center [NCGC] NIH Molecular Libraries Screening Centers Network [MLSCN] MLSCN Grant: 1 X01 MH079844-01 Assay Submitter (PI): Dr. SUN, YI, University of Michigan NCGC Assay Overview: Synthetic Lethal Screen for Compounds to Kill Cancer Cells with p53 Mutation. Tumor suppressor gene p53 serves as a major cellular barrier against tumorigenesis. […] The goal of this screening is to identify small molecule probes that selectively kill cancer cells with mutations in p53. This screening was carried out using two lines of H1299 lung cancer cells. The H1299-p53 A138V line express a temperature sensitive p53 mutant (p53ts) in which the mutant p53 protein (A138V) is in the mutant confirmation when grown at 39C (the nonpermissive temperature) and in the wild type conformation when grown at 32C (the permissive temperature). A H1299-neo line (p53 null) grown at both 39C and 32C were used as counter-screens to filter out false positive associated with temperature shifting. The small molecular compounds that selectively target mutant p53-containing cancer cells were selected as candidate probes for further study. A cytotoxicity assay based on the measurement of ATP contents in cells was used in this screen. Concentration-responses of all the compounds in the library collection were determined in qHTS using the cell lines and temperature conditions as above.
NCGC Assay Protocol Summary: Both the H1299-p53A138V and H1299-neo cell lines were provided by Dr.Yi Sun, a PI at the University Michigan. The cells were maintained and cultured at 37C. The resuspended frozen cells were used to plate the cells in the 1536-well assay plates at a density of 600 cells per well in 5 ul medium. The assay plates with the cells were incubated at 37C for 16 to 30 hours before the experiments. […] AC50 values were determined from concentration-response data modeled with the standard Hill equation. […] Detection; Luminescence; Viewlux plate reader Keywords: p53, synthetic lethal, cancer, cell viability, cytotoxicity, H1299 cell line, luminescence, MLSMR, MLSCN, NIH Roadmap, qHTS, NCGC

Measured: activity change, negative = cytotoxicity

COC(=O)C1=C(C)NC(C)=C(C(=O)OC)C1c1ccccc1[N+](=O)[O-]
inactive: at 1.84 µM (top of the series) 5.37% | at 20.6 µM (top of the series) 2.47% | at 46.1 µM (top of the series) 45.2%
